{"source": "PubChem BioAssay AID1259405, NCATS – 2018", "purpose": "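Mouse-designed siRNAs used to find CHO productivity engineering targets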 (primary screen)", "system": "Chinese hamster CHO-K1 ovary cells with stable secreted eGFP expression", "reagents": "single siRNA against mouse genes, 0.8 pmol siRNA per well (2 µl of 400 nM stock)", "duration": "3 days", "detection": "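Per-well intracellular GFP measured by laser scanning cytometry, plus viability from ATP luminescence, each relative to plate median of non-targeting control wells, in %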", "direction": "GFP, % of control: higher = more GFP per well, higher productivity; viability (ATP), % of control: higher = more viable cells (more ATP)", "call rule": "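a knock-down is called active if GFP reaches 120% or more of non-targeting control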", "note": "This is one part, drawn at random, of about 50,000 reagents. In the full data, about 4,000 (8%) are marked active. 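Mouse siRNA library applied to hamster cells; one well for each siRNA.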 Reagents against one gene are numbered here."}
{"target gene": "Or5t5", "reagent": 1, "GFP, % of control": 68.8, "viability (ATP), % of control": 55.1, "outcome": "inactive"}
{"target gene": "Or5t5", "reagent": 2, "GFP, % of control": 92.2, "viability (ATP), % of control": 60.4, "outcome": "inactive"}
{"target gene": "Or5t5", "reagent": 3, "GFP, % of control": 68.4, "viability (ATP), % of control": 93.8, "outcome": "inactive"}
{"target gene": "Tmbim7", "reagent": 1, "GFP, % of control": 29.3, "viability (ATP), % of control": 108, "outcome": "inactive"}
{"target gene": "Tmbim7", "reagent": 2, "GFP, % of control": 76.7, "viability (ATP), % of control": 72.1, "outcome": "inactive"}
{"target gene": "Tmbim7", "reagent": 3, "GFP, % of control": 60.5, "viability (ATP), % of control": 63.1, "outcome": "inactive"}
{"target gene": "4930515G01Rik", "reagent": 1, "GFP, % of control": 92.8, "viability (ATP), % of control": 71.6, "outcome": "inactive"}
{"target gene": "4930515G01Rik", "reagent": 2, "GFP, % of control": 91.4, "viability (ATP), % of control": 73.8, "outcome": "inactive"}
{"target gene": "4930515G01Rik", "reagent": 3, "GFP, % of control": 62.6, "viability (ATP), % of control": 64.6, "outcome": "inactive"}
{"target gene": "Bclaf1", "reagent": 1, "GFP, % of control": 57.6, "viability (ATP), % of control": 56.3, "outcome": "inactive"}
{"target gene": "Bclaf1", "reagent": 2, "GFP, % of control": 54.1, "viability (ATP), % of control": 71.5, "outcome": "inactive"}
{"target gene": "Bclaf1", "reagent": 3, "GFP, % of control": 92.7, "viability (ATP), % of control": 130, "outcome": "inactive"}
{"target gene": "Rdh7", "reagent": 1, "GFP, % of control": 55.2, "viability (ATP), % of control": 56.8, "outcome": "inactive"}
{"target gene": "Rdh7", "reagent": 2, "GFP, % of control": 84.7, "viability (ATP), % of control": 93.3, "outcome": "inactive"}
{"target gene": "Rdh7", "reagent": 3, "GFP, % of control": 34.4, "viability (ATP), % of control": 56.9, "outcome": "inactive"}
{"target gene": "Cog4", "reagent": 1, "GFP, % of control": 99.3, "viability (ATP), % of control": 94, "outcome": "inactive"}
{"target gene": "Cog4", "reagent": 2, "GFP, % of control": 81.6, "viability (ATP), % of control": 59.9, "outcome": "inactive"}
{"target gene": "Cog4", "reagent": 3, "GFP, % of control": 71.1, "viability (ATP), % of control": 56.4, "outcome": "inactive"}
{"target gene": "Mrps18c", "reagent": 1, "GFP, % of control": 84.3, "viability (ATP), % of control": 77.6, "outcome": "inactive"}
{"target gene": "Mrps18c", "reagent": 2, "GFP, % of control": 145, "viability (ATP), % of control": 87.7, "outcome": "active"}
{"target gene": "Mrps18c", "reagent": 3, "GFP, % of control": 115, "viability (ATP), % of control": 67.6, "outcome": "inactive"}

Next part; the last 3 above are carried over.
{"target gene": "Mrps18c", "reagent": 1, "GFP, % of control": 84.3, "viability (ATP), % of control": 77.6, "outcome": "inactive"}
{"target gene": "Mrps18c", "reagent": 2, "GFP, % of control": 145, "viability (ATP), % of control": 87.7, "outcome": "active"}
{"target gene": "Mrps18c", "reagent": 3, "GFP, % of control": 115, "viability (ATP), % of control": 67.6, "outcome": "inactive"}
{"target gene": "Irx2", "reagent": 1, "GFP, % of control": 78.6, "viability (ATP), % of control": 84.9, "outcome": "inactive"}
{"target gene": "Irx2", "reagent": 2, "GFP, % of control": 84.2, "viability (ATP), % of control": 92.9, "outcome": "inactive"}
{"target gene": "Irx2", "reagent": 3, "GFP, % of control": 100, "viability (ATP), % of control": 111, "outcome": "inactive"}
{"target gene": "Limk1", "reagent": 1, "GFP, % of control": 78.7, "viability (ATP), % of control": 60.3, "outcome": "inactive"}
{"target gene": "Anks6", "reagent": 1, "GFP, % of control": 64.8, "viability (ATP), % of control": 63.5, "outcome": "inactive"}
{"target gene": "Anks6", "reagent": 2, "GFP, % of control": 91, "viability (ATP), % of control": 116, "outcome": "inactive"}
{"target gene": "Anks6", "reagent": 3, "GFP, % of control": 48.9, "viability (ATP), % of control": 78, "outcome": "inactive"}
{"target gene": "H3c3", "reagent": 1, "GFP, % of control": 61, "viability (ATP), % of control": 81.4, "outcome": "inactive"}
{"target gene": "H3c3", "reagent": 2, "GFP, % of control": 86.7, "viability (ATP), % of control": 84.8, "outcome": "inactive"}
{"target gene": "H3c3", "reagent": 3, "GFP, % of control": 62.5, "viability (ATP), % of control": 69.7, "outcome": "inactive"}
{"target gene": "Znf41-ps", "reagent": 1, "GFP, % of control": 85.8, "viability (ATP), % of control": 78.6, "outcome": "inactive"}
{"target gene": "Znf41-ps", "reagent": 2, "GFP, % of control": 79.1, "viability (ATP), % of control": 61.3, "outcome": "inactive"}
{"target gene": "Znf41-ps", "reagent": 3, "GFP, % of control": 126, "viability (ATP), % of control": 93.1, "outcome": "active"}
{"target gene": "Lzts1", "reagent": 1, "GFP, % of control": 63.5, "viability (ATP), % of control": 50.7, "outcome": "inactive"}
{"target gene": "Lzts1", "reagent": 2, "GFP, % of control": 84.8, "viability (ATP), % of control": 63.4, "outcome": "inactive"}
{"target gene": "Lzts1", "reagent": 3, "GFP, % of control": 70.1, "viability (ATP), % of control": 61, "outcome": "inactive"}
{"target gene": "Arrdc1", "reagent": 1, "GFP, % of control": 52.5, "viability (ATP), % of control": 54, "outcome": "inactive"}
{"target gene": "Arrdc1", "reagent": 2, "GFP, % of control": 76.1, "viability (ATP), % of control": 78.5, "outcome": "inactive"}
{"target gene": "Arrdc1", "reagent": 3, "GFP, % of control": 120, "viability (ATP), % of control": 116, "outcome": "inactive"}
